Data published in article PMC6756068.

What was measured:
[1] = target: GST-merlin FERM with the F3 subdomain deleted; experiment: pull-down; GST-merlin fragments pull down RasGAP from Sc4 cell lysate; western blot; only the target purified
[2] = target: GST-merlin tail (isoform 1); experiment: as above
[3] = target: GST-merlin tail (isoform 1); experiment: pull-down; GST-merlin fragments pull down FL RasGAP purified from E. coli; western blot; both purified

binding [1] | binding [2] | binding [3] | Binder
binds | binds |  | RasGAP of Sc4 cells (protein, UniProt E9PYG6 1-1038) MMAAEAGSEEGGPATAGPGGGAATGSSAYSAACRVKLPAALPVAAAPCPGLADADLVAALGGGAASGSGFLGTGPVAGVLGGAALTGSAAAGVAGAAAAGPAGDVAFTKGTLSLPAETLGPGGGFPPLPPPPQLPPLGSGLGTVDEGDSLDGPEYEEEEVAIPLTAPPTNQWYHGKLDRTIAEERLRQAGKSGSYLIRESDRRPGSFVLSFLSQTNVVNHFRIIAMCGDYYIGGRRFSSLSDLIGYYSHVSCLLKGEKLLYPVAPPEPVEDRRRVRAILPYTKVPDTDEISFLKGDMFIVHNELEDGWMWVTNLRTDEQGLIVEDLVEEVGREEDPHEGKIWFHGKISKQEAYNLLMTVGQVCSFLVRPSDNTPGDYSLYFRTNENIQRFKICPTPNNQFMMGGRYYNSIGDIIDHYRKEQIVEGYYLKEPVPMQDQGQVLNDTVDGKEIYNTIRRKTKDAFYKNIVKKGYLLKKGKGKRWKNLYFILEGSDAQLIYFESEKRATKPKGLIDLSVCSVYVVHDSLFGRPNCFQIVVQHFSEEHYIFYFAGETPEQAEDWMKGLQAFCSLRKSSPGTSNKRLRQVSSLVLHIEEAHKLPVKHFTNPYCNIYLNSVQVAKTHAREGQNPVWSEEFVFDDLPPDINRFEITLSNKTKKSKDPDILFMRCQLSRLQKGHATDEWFLLSSHIPLKGIEPGSLRVRARYSMEKIMPEEEYSEFKELILQKELHVVYALSHVCGQDRTLLASILLKIFLHEKLESLLLCTLNDREISMEDEATTLFRATTLASTLMEQYMKATATQFVHHALKDSILKIMESKQSCELSPSKLEKNEDVNTNLAHLLSILSELVEKIFMASEILPPTLRYIYGCLQKSVQHKWPTNNTMRTRVVSGFVFLRLICPAILNPRMFNIISDSPSPIAARTLTLVAKSVQNLANLVEFGAKEPYMEGVNPFIKSNKHRMIMFLDELGNVPELPDTTEHSRTDLSRDLAALHEICVAHSDELRTLSNERGVQQHVLKKLLAITELLQQKQNQYTKTNDIR
 |  | binds | full-length (FL) RasGAP purified from E. coli (protein, UniProt P20936 1-1047) MMAAEAGSEEGGPVTAGAGGGGAAAGSSAYPAVCRVKIPAALPVAAAPYPGLVETGVAGTLGGGAALGSEFLGAGSVAGALGGAGLTGGGTAAGVAGAAAGVAGAAVAGPSGDMALTKLPTSLLAETLGPGGGFPPLPPPPYLPPLGAGLGTVDEGDSLDGPEYEEEEVAIPLTAPPTNQWYHGKLDRTIAEERLRQAGKSGSYLIRESDRRPGSFVLSFLSQMNVVNHFRIIAMCGDYYIGGRRFSSLSDLIGYYSHVSCLLKGEKLLYPVAPPEPVEDRRRVRAILPYTKVPDTDEISFLKGDMFIVHNELEDGWMWVTNLRTDEQGLIVEDLVEEVGREEDPHEGKIWFHGKISKQEAYNLLMTVGQVCSFLVRPSDNTPGDYSLYFRTNENIQRFKICPTPNNQFMMGGRYYNSIGDIIDHYRKEQIVEGYYLKEPVPMQDQEQVLNDTVDGKEIYNTIRRKTKDAFYKNIVKKGYLLKKGKGKRWKNLYFILEGSDAQLIYFESEKRATKPKGLIDLSVCSVYVVHDSLFGRPNCFQIVVQHFSEEHYIFYFAGETPEQAEDWMKGLQAFCNLRKSSPGTSNKRLRQVSSLVLHIEEAHKLPVKHFTNPYCNIYLNSVQVAKTHAREGQNPVWSEEFVFDDLPPDINRFEITLSNKTKKSKDPDILFMRCQLSRLQKGHATDEWFLLSSHIPLKGIEPGSLRVRARYSMEKIMPEEEYSEFKELILQKELHVVYALSHVCGQDRTLLASILLRIFLHEKLESLLLCTLNDREISMEDEATTLFRATTLASTLMEQYMKATATQFVHHALKDSILKIMESKQSCELSPSKLEKNEDVNTNLTHLLNILSELVEKIFMASEILPPTLRYIYGCLQKSVQHKWPTNTTMRTRVVSGFVFLRLICPAILNPRMFNIISDSPSPIAARTLILVAKSVQNLANLVEFGAKEPYMEGVNPFIKSNKHRMIMFLDELGNVPELPDTTEHSRTDLSRDLAALHEICVAHSDELRTLSNERGAQQHVLKKLLAITELLQQKQNQYTKTNDVR

These are yes or no findings as the source states them, for the method shown. A result given as binding can be weak or reduced; the word gives no strength. For part of these data: In cells and extracts the contact can be indirect.
